Literature values, collected in US12329765B2, “Targeted nanoparticle for the treatment of traumatic brain injury and other CNS diseases” (priority 2021, dated 2025).
At least one compound was matched to its structure with a doubt left.

System: neurons in culture
Conditions: 0.1 μM minocycline, in vitro; cited from earlier work

For `CN(C)c1ccc(O)c2c1C[C@H]1C[C@H]3[C@H](N(C)C)C(O)=C(C(N)=O)C(=O)[C@@]3(O)C(O)=C1C2=O` [minocycline, Minocycline], the “increased survival of neurons in culture” value is given as 85%.
